Laboratory results reported in patent publication US20230365651A1.
Results are given in words; binding and its absence hold for the method and conditions named. Binding calls can cover weak binding; strength is not graded here.

Experiments:
[1] = molecular target: HLA-A*02:01 (human); test: UV peptide exchange, anti-b2m ELISA
[2] = molecular target: HLA-A*03:01 (human); test: UV peptide exchange, anti-b2m ELISA
[3] = molecular target: HLA-B*08:01 (human); test: pMHC stability, b2m dissociation half-life at 37 C

Row | Binder | binding [1] | further results
1 | TLLKALLEI [… (SEQ ID NO: 2)] | binds | –
2 | KTYETNLEIKK [… (SEQ ID NO: 28)] | – | binding [2]: binds
3 | ALIYNLVGI [… (SEQ ID NO: 3)] | binds | –
4 | YASEGVKQV [… (SEQ ID NO: 243)] | binds | –
5 | YLEDTDRNL [… (SEQ ID NO: 71)] | binds | –
6 | DMKYKNRV [DMKYKNRV (SEQ ID NO: 50)] | – | binding [3]: binds
7 | RLLDFINVL [… (SEQ ID NO: 5)] | binds | –
8 | YMVHIQVTL [… (SEQ ID NO: 61)] | binds | –
9 | LLQPPPLLAR [… (SEQ ID NO: 98)] | – | binding [2]: binds
10 | MGSARVAEL [… (SEQ ID NO: 152)] | – | binding [3]: binds
11 | SAIPFSMTL [… (SEQ ID NO: 236)] | binds | –
12 | PLPRPGAVL [… (SEQ ID NO: 219)] | binds | –
13 | MPNLRSVDL [… (SEQ ID NO: 47)] | – | binding [3]: binds
14 | RISEYLLEK [… (SEQ ID NO: 26)] | – | binding [2]: binds
15 | ATFERVLLR [… (SEQ ID NO: 94)] | – | binding [2]: binds
16 | NAMLRKVAV [… (SEQ ID NO: 153)] | – | binding [3]: binds
17 | AVAPPTPASK [… (SEQ ID NO: 87)] | – | binding [2]: binds
18 | DVKKKIKEV [… (SEQ ID NO: 48)] | – | binding [3]: binds
19 | FLDPDRHFL [… (SEQ ID NO: 64)] | binds | –

Row | Binder | binding [1] | further results
20 | MIPTFTALL [… (SEQ ID NO: 1)] | binds | –
21 | YTFRYPLSL [… (SEQ ID NO: 227)] | binds | –
22 | SMYYPLQLK [… (SEQ ID NO: 24)] | – | binding [2]: binds
23 | DTDSSVHVQV [… (SEQ ID NO: 244)] | binds | –
24 | QSMYYPLQLK [… (SEQ ID NO: 95)] | – | binding [2]: binds
25 | KLQPAQTAAK [… (SEQ ID NO: 84)] | – | binding [2]: binds
26 | RSLRYYYEK [… (SEQ ID NO: 91)] | – | binding [2]: binds
27 | RVAELLLLH [… (SEQ ID NO: 89)] | – | binding [2]: binds
28 | KILEEHTNK [… (SEQ ID NO: 93)] | – | binding [2]: binds
29 | GLLSLTSTLYL [… (SEQ ID NO: 60)] | binds | –
30 | VGREKKLAL [… (SEQ ID NO: 45)] | – | binding [3]: binds
31 | HVKEKFLL [HVKEKFLL (SEQ ID NO: 156)] | – | binding [3]: binds
32 | SLRLKNVQL [… (SEQ ID NO: 51)] | – | binding [3]: binds
33 | VLLGSLFSRK [… (SEQ ID NO: 85)] | – | binding [2]: binds
34 | RQPNILVHL [… (SEQ ID NO: 241)] | binds | –
35 | ALFKAWAL [ALFKAWAL (SEQ ID NO: 4)] | binds | –
36 | KVVSVLYNV [… (SEQ ID NO: 75)] | binds | –
37 | ALEVAHRLK [… (SEQ ID NO: 30)] | – | binding [2]: binds
38 | LNKQKVTF [LNKQKVTF (SEQ ID NO: 44)] | – | binding [3]: binds

Row | Binder | binding [1] | further results
39 | KVVDRWNEK [… (SEQ ID NO: 99)] | – | binding [2]: binds
40 | SVTESTHHL [… (SEQ ID NO: 231)] | binds | –
41 | ALQAFEFRV [… (SEQ ID NO: 7)] | binds | –
42 | SLLLPSIFL [… (SEQ ID NO: 67)] | binds | –
43 | DMKKAKEQL [… (SEQ ID NO: 46)] | – | binding [3]: binds
44 | VVHAVFALK [… (SEQ ID NO: 88)] | – | binding [2]: binds
45 | GTYAHTVNR [… (SEQ ID NO: 83)] | – | binding [2]: binds
46 | VVLLGSLFSRK [… (SEQ ID NO: 86)] | – | binding [2]: binds
47 | VLYGPAGLGK [… (SEQ ID NO: 27)] | – | binding [2]: binds
48 | LPRLKAFMI [… (SEQ ID NO: 49)] | – | binding [3]: binds
49 | TTYEGSITV [… (SEQ ID NO: 69)] | binds | –
50 | ALKARTVTF [… (SEQ ID NO: 43)] | – | binding [3]: binds
51 | VSSSLTLKV [… (SEQ ID NO: 217)] | binds | –
52 | YLTDLQVSL [… (SEQ ID NO: 72)] | binds | –
53 | HLLLKVLAF [… (SEQ ID NO: 151)] | – | binding [3]: binds
54 | MAAVKQAL [MAAVKQAL (SEQ ID NO: 150)] | – | binding [3]: binds
55 | KVAGERYVYK [… (SEQ ID NO: 90)] | – | binding [2]: binds
56 | MLRKIAVAA [… (SEQ ID NO: 154)] | – | binding [3]: binds

Further lines, with some results ahead:

Row | binding [1] | Binder | further results
57 | binds | SLPRFQVTL [… (SEQ ID NO: 224)] | –
58 | binds | RLWDWVPLA [… (SEQ ID NO: 228)] | –
59 | binds | FLIEELLFA [… (SEQ ID NO: 73)] | –
60 | binds | YLVTKVVAV [… (SEQ ID NO: 8)] | –
61 | binds | SLGKHTVAL [… (SEQ ID NO: 6)] | –
62 | binds | KVLGVNVML [… (SEQ ID NO: 62)] | –
63 | binds | IMFDDAIERA [… (SEQ ID NO: 216)] | –
64 | binds | TISSLTHEL [… (SEQ ID NO: 232)] | –
65 | binds | VLQGLLRSL [… (SEQ ID NO: 70)] | –
66 | binds | KLFDTQQFL [… (SEQ ID NO: 68)] | –
67 | binds | GLLQELSSI [… (SEQ ID NO: 66)] | –
68 | binds | SLLDLYQL [SLLDLYQL (SEQ ID NO: 221)] | –
69 | binds | ISVPAKTSL [… (SEQ ID NO: 229)] | –
70 | binds | ALMRLIGCPL [… (SEQ ID NO: 222)] | –
71 | binds | GVATRVDAI [… (SEQ ID NO: 234)] | –
72 | binds | VLLAGFKPPL [… (SEQ ID NO: 9)] | –
73 | binds | STIPALHEI [… (SEQ ID NO: 242)] | –
74 | binds | MMEEMIFNL [… (SEQ ID NO: 63)] | –
75 | binds | RMTTQLLLL [… (SEQ ID NO: 220)] | –
76 | binds | FAHHGRSL [FAHHGRSL (SEQ ID NO: 223)] | –
